In article PMC5035054 one finds binding data, which are given here for six molecules.

Sequences of proteins named here, by UniProt entry; tags and fusion partners are left off.
UniProt P08579: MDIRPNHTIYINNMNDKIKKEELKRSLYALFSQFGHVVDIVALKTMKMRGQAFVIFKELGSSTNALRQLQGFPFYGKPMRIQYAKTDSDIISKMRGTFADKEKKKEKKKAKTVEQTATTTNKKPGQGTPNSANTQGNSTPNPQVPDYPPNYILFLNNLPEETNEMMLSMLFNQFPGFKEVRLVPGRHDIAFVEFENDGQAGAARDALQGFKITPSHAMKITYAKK

No constants are given. Whether binding was seen depends on the method and setting. Binding seen in cells or lysates may run through a third protein. Here binding means that the protein was enriched with, or labelled near, the bait; the list need not be complete.

The target of this experiment is FLAG-V5-tagged U2-B” (FV5-U2-B”) (UniProt P08579). Put plainly: affinity purification with mass spectrometry; in vitro splicing reaction of NEB” nuclear extract with AdML pre-mRNA and ATPγS, Sephacryl-S500 gel filtration, pooled spliceosome fractions on anti-FLAG M2 Affinity Gel, mass spectrometry; two independent experiments.

B1: MSL3 (protein, UniProt Q8N5Y2 1-521)
chain: MSASEGMKFKFHSGEKVLCFEPDPTKARVLYDAKIVDVIVGKDEKGRKIPEYLIHFNGWNRSWDRWAAEDHVLRDTDENRRLQRKLARKAVARLRSTGRKKKRCRLPGVDSVLKGLPTEEKDENDENSLSSSSDCSENKDEEISEESDIEEKTEVKEEPELQTRREMEERTITIEIPEVLKKQLEDDCYYINRRKRLVKLPCQTNIITILESYVKHFAINAAFSANERPRHHHVMPHANMNVHYIPAEKNVDLCKEMVDGLRITFDYTLPLVLLYPYEQAQYKKVTSSKFFLPIKESATSTNRSQEELSPSPPLLNPSTPQSTESQPTTGEPATPKRRKAEPEALQSLRRSTRHSANCDRLSESSASPQPKRRQQDTSASMPKLFLHLEKKTPVHSRSSSPIPLTPSKEGSAVFAGFEGRRTNEINEVLSWKLVPDNYPPGDQPPPPSYIYGAQHLLRLFVKLPEILGKMSFSEKNLKALLKHFDLFLRFLAEYHDDFFPESAYVAACEAHYSTKNPRAIY
For the molecule B1, the binding entry was “binds”.

B2: CDYL (protein, UniProt Q9Y232 1-598)
chain: MTFQASHRSAWGKSRKKNWQYEGPTQKLFLKRNNVSAPDGPSDPSISVSSEQSGAQQPPALQVERIVDKRKNKKGKTEYLVRWKGYDSEDDTWEPEQHLVNCEEYIHDFNRRHTEKQKESTLTRTNRTSPNNARKQISRSTNSNFSKTSPKALVIGKDHESKNSQLFAASQKFRKNTAPSLSSRKNMDLAKSGIKILVPKSPVKSRTAVDGFQSESPEKLDPVEQGQEDTVAPEVAAEKPVGALLGPGAERARMGSRPRIHPLVPQVPGPVTAAMATGLAVNGKGTSPFMDALTANGTTNIQTSVTGVTASKRKFIDDRRDQPFDKRLRFSVRQTESAYRYRDIVVRKQDGFTHILLSTKSSENNSLNPEVMREVQSALSTAAADDSKLVLLSAVGSVFCCGLDFIYFIRRLTDDRKRESTKMAEAIRNFVNTFIQFKKPIIVAVNGPAIGLGASILPLCDVVWANEKAWFQTPYTTFGQSPDGCSTVMFPKIMGGASANEMLLSGRKLTAQEACGKGLVSQVFWPGTFTQEVMVRIKELASCNPVVLEESKALVRCNMKMELEQANERECEVLKKIWGSAQGMDSMLKYLQRKIDEF
For the molecule B2, the binding entry is recorded as “binds”.

B3: ZBTB4 (protein, UniProt Q9P1Z0 1-1013)
chain: MPPPAEVTDPSHAPAVLRQLNEQRLRGLFCDVTLIAGDTKFPAHRSVLAASSPFFREALLTSAPLPLPPATGGAAPNPATTTAASSSSSSSSSSSSSSSSASSSSSSSSSSPPPASPPASSPPRVLELPGVPAAAFSDVLNFIYSARLALPGGGGDGAAVAEIGALGRRLGISRLQGLGEGGDAWVPPTPAPMATSQPEEDSFGPGPRPAGEWEGDRAEAQAPDLQCSLPRRPLPCPQCGKSFIHPKRLQTHEAQCRRGASTRGSTGLGAGGAGPGGPAGVDASALPPPVGFRGGPEHVVKVVGGHVLYVCAACERSYVTLSSLKRHSNVHSWRRKYPCRYCEKVFALAEYRTKHEVWHTGERRYQCIFCWETFVTYYNLKTHQRAFHGISPGLLASEKTPNGGYKPKLNTLKLYRLLPMRAAKRPYKTYSQGAPEAPLSPTLNTPAPVAMPASPPPGPPPAPEPGPPPSVITFAHPAPSVIVHGGSSSGGGGSGTASTGGSQAASVITYTAPPRPPKKREYPPPPPEPAATPTSPATAVSPATAAGPAMATTTEEAKGRNPRAGRTLTYTAKPVGGIGGGGGPPTGAGRGPSQLQAPPPLCQITVRIGEEAIVKRRISETDLRPGELSGEEMEESEEDEEEEDEEEEEEDEEESKAGGEDQLWRPYYSYKPKRKAGAAGGASVGGSGLPRGRRPPRWRQKLERRSWEETPAAESPAGRARTERRHRCGDCAQTFTTLRKLRKHQEAHGGGSHSSRAGRRPSTRFTCPHCAKVCKTAAALSRHGQRHAAERPGGTPTPVIAYSKGSAGTRPGDVKEEAPQEMQVSSSSGEAGGGSTAAEEASETASLQDPIISGGEEPPVVASGGSYVYPPVQEFPLALIGGGREPGGGRGKSGSEGPVGAGEGDRMEGIGAAKVTFYPEPYPLVYGPQLLAAYPYNFSNLAALPVALNMVLPDEKGAGALPFLPGVFGYAVNPQAAPPAPPTPPPPTLPPPIPPKGEGERAGVERTQKGDVG
In the case of B3, the binding entry is on record as “binds”.

B4: SNW1 (protein, UniProt Q13573 1-536)
chain: MALTSFLPAPTQLSQDQLEAEEKARSQRSRQTSLVSSRREPPPYGYRKGWIPRLLEDFGDGGAFPEIHVAQYPLDMGRKKKMSNALAIQVDSEGKIKYDAIARQGQSKDKVIYSKYTDLVPKEVMNADDPDLQRPDEEAIKEITEKTRVALEKSVSQKVAAAMPVRAADKLAPAQYIRYTPSQQGVAFNSGAKQRVIRMVEMQKDPMEPPRFKINKKIPRGPPSPPAPVMHSPSRKMTVKEQQEWKIPPCISNWKNAKGYTIPLDKRLAADGRGLQTVHINENFAKLAEALYIADRKAREAVEMRAQVERKMAQKEKEKHEEKLREMAQKARERRAGIKTHVEKEDGEARERDEIRHDRRKERQHDRNLSRAAPDKRSKLQRNENRDISEVIALGVPNPRTSNEVQYDQRLFNQSKGMDSGFAGGEDEIYNVYDQAWRGGKDMAQSIYRPSKNLDKDMYGDDLEARIKTNRFVPDKEFSGSDRRQRGREGPVQFEEDPFGLDKFLEEAKQHGGSKRPSDSSRPKEHEHEGKKRRKE
B4: the binding result is “binds”.

B5: SIN3B (protein, UniProt O75182 1-1162)
chain: MAHAGGGSGGSGAGGPAGRGLSGARWGRSGSAGHEKLPVHVEDALTYLDQVKIRFGSDPATYNGFLEIMKEFKSQSIDTPGVIRRVSQLFHEHPDLIVGFNAFLPLGYRIDIPKNGKLNIQSPLTSQENSHNHGDGAEDFKQQVPYKEDKPQVPLESDSVEFNNAISYVNKIKTRFLDHPEIYRSFLEILHTYQKEQLNTRGRPFRGMSEEEVFTEVANLFRGQEDLLSEFGQFLPEAKRSLFTGNGPCEMHSVQKNEHDKTPEHSRKRSRPSLLRPVSAPAKKKMKLRGTKDLSIAAVGKYGTLQEFSFFDKVRRVLKSQEVYENFLRCIALFNQELVSGSELLQLVSPFLGKFPELFAQFKSFLGVKELSFAPPMSDRSGDGISREIDYASCKRIGSSYRALPKTYQQPKCSGRTAICKELDHWTLLQGSWTDDYCMSKFKNTCWIPGYSAGVLNDTWVSFPSWSEDSTFVSSKKTPYEEQLHRCEDERFELDVVLETNLATIRVLESVQKKLSRMAPEDQEKFRLDDSLGGTSEVIQRRAIYRIYGDKAPEIIESLKKNPVTAVPVVLKRLKAKEEEWREAQQGFNKIWREQYEKAYLKSLDHQAVNFKQNDTKALRSKSLLNEIESVYDEHQEQHSEGRSAPSSEPHLIFVYEDRQILEDAAALISYYVKRQPAIQKEDQGTIHQLLHQFVPSLFFSQQLDLGASEESADEDRDSPQGQTTDPSERKKPAPGPHSSPPEEKGAFGDAPATEQPPLPPPAPHKPLDDVYSLFFANNNWYFFLRLHQTLCSRLLKIYRQAQKQLLEYRTEKEREKLLCEGRREKGSDPAMELRLKQPSEVELEEYYPAFLDMVRSLLEGSIDPTQYEDTLREMFTIHAYVGFTMDKLVQNIARQLHHLVSDDVCLKVVELYLNEKKRGAAGGNLSSRCVRAARETSYQWKAERCMADENCFKVMFLQRKGQVIMTIELLDTEEAQTEDPVEVQHLARYVEQYVGTEGASSSPTEGFLLKPVFLQRNLKKFRRRWQSEQARALRGEARSSWKRLVGVESACDVDCRFKLSTHKMVFIVNSEDYMYRRGTLCRAKQVQPLVLLRHHQHFEEWHSRWLEDNVTVEAASLVQDWLMGEEDEDMVPCKTLCETVHVHGLPVTRYRVQYSRRPASP
Consider B5, for which the binding result is on record as “binds”.

B6: BAZ1B (protein, UniProt Q9UIG0 1-1483)
chain: MAPLLGRKPFPLVKPLPGEEPLFTIPHTQEAFRTREEYEARLERYSERIWTCKSTGSSQLTHKEAWEEEQEVAELLKEEFPAWYEKLVLEMVHHNTASLEKLVDTAWLEIMTKYAVGEECDFEVGKEKMLKVKIVKIHPLEKVDEEATEKKSDGACDSPSSDKENSSQIAQDHQKKETVVKEDEGRRESINDRARRSPRKLPTSLKKGERKWAPPKFLPHKYDVKLQNEDKIISNVPADSLIRTERPPNKEIVRYFIRHNALRAGTGENAPWVVEDELVKKYSLPSKFSDFLLDPYKYMTLNPSTKRKNTGSPDRKPSKKSKTDNSSLSSPLNPKLWCHVHLKKSLSGSPLKVKNSKNSKSPEEHLEEMMKMMSPNKLHTNFHIPKKGPPAKKPGKHSDKPLKAKGRSKGILNGQKSTGNSKSPKKGLKTPKTKMKQMTLLDMAKGTQKMTRAPRNSGGTPRTSSKPHKHLPPAALHLIAYYKENKDREDKRSALSCVISKTARLLSSEDRARLPEELRSLVQKRYELLEHKKRWASMSEEQRKEYLKKKREELKKKLKEKAKERREKEMLERLEKQKRYEDQELTGKNLPAFRLVDTPEGLPNTLFGDVAMVVEFLSCYSGLLLPDAQYPITAVSLMEALSADKGGFLYLNRVLVILLQTLLQDEIAEDYGELGMKLSEIPLTLHSVSELVRLCLRRSDVQEESEGSDTDDNKDSAAFEDNEVQDEFLEKLETSEFFELTSEEKLQILTALCHRILMTYSVQDHMETRQQMSAELWKERLAVLKEENDKKRAEKQKRKEMEAKNKENGKVENGLGKTDRKKEIVKFEPQVDTEAEDMISAVKSRRLLAIQAKKEREIQEREMKVKLERQAEEERIRKHKAAAEKAFQEGIAKAKLVMRRTPIGTDRNHNRYWLFSDEVPGLFIEKGWVHDSIDYRFNHHCKDHTVSGDEDYCPRSKKANLGKNASMNTQHGTATEVAVETTTPKQGQNLWFLCDSQKELDELLNCLHPQGIRESQLKERLEKRYQDIIHSIHLARKPNLGLKSCDGNQELLNFLRSDLIEVATRLQKGGLGYVEETSEFEARVISLEKLKDFGECVIALQASVIKKFLQGFMAPKQKRRKLQSEDSAKTEEVDEEKKMVEEAKVASALEKWKTAIREAQTFSRMHVLLGMLDACIKWDMSAENARCKVCRKKGEDDKLILCDECNKAFHLFCLRPALYEVPDGEWQCPACQPATARRNSRGRNYTEESASEDSEDDESDEEEEEEEEEEEEEDYEVAGLRLRPRKTIRGKHSVIPPAARSGRRPGKKPHSTRRSQPKAPPVDDAEVDELVLQTKRSSRRQSLELQKCEEILHKIVKYRFSWPFREPVTRDEAEDYYDVITHPMDFQTVQNKCSCGSYRSVQEFLTDMKQVFTNAEVYNCRGSHVLSCMVKTEQCLVALLHKHLPGHPYVRRKRKKFPDRLAEDEGDSEPEAVGQSRGRRQKK
As for B6, the binding result is recorded as “binds”.
